At least one read-out could not be matched to a standard name with certainty.
Test: Plasma and liver pharmacokinetics following a single oral dose in CD-1 mice
Format: in vivo
Details: CD-1 male mice, single oral dose 25 mg/kg in PEG 200, liver 2′-MeGTP
Procedure: Plasma samples were analyzed for 2′-methylguanosine (2′-MeG) by LC-MS/MS. The internal standard (IS) was 2′-MeG-D3. For protein precipitation and extraction, each plasma sample (50 μL) was treated with 500 μL of 0.2% formic acid in acetonitrile and 20 μL of the internal standard working solution. After vortexing and centrifugation, 500 μL of the sample extracts were transferred to a new plate, dried under N2 at ˜28° C. and reconstituted with 75 μL of 0.2% FA in water. The extracts were chromatographed on an Aquasil C18 column using a gradient system of 0.2% formic acid in water and acetonitrile. The analytes were detected and quantified by tandem mass spectrometry in positive ion mode on an MDS Sciex API5000 equipped with a Turbo Ionspray® interface. The calibration range was 0.500 (LLOQ) to 200 ng/mL in mouse plasma. The corresponding range for molar units is 1.68 to 673 pmol/mL.
Liver samples were analyzed for the active species 2′-methylguanosine triphosphate (2′-MeGTP) by LC-MS/MS. […] Internal standard solution was added to the homogenate followed by neutralization with 20% ammonium hydroxide solution and addition of 500 μL 1% formic acid. The tissue samples were extracted by weak anion exchange solid phase extraction (SPE). Post extraction, the eluates were evaporated under nitrogen, followed by reconstitution before injection onto the LC-MS/MS system. […]

| Structure (SMILES) | A person 2′-MeGTP Cmax (pmol/g at 1 μmol/kg) |
| --- | --- |
| CCOc1nc(N)nc2c1ncn2[C@@H]1O[C@@H]2COP(=O)(N[C@@H](C)C(=O)OC(C)C)O[C@H]2[C@@]1(C)F (single isomer, unassigned) [Compound 1 Diastereomer 2] | 76 pmol/g at 1 μmol/kg |
| CCOc1nc(N)nc2c1ncn2[C@@H]1O[C@@H]2COP(=O)(N[C@@H](C)C(=O)OC(C)C)O[C@H]2[C@@]1(C)F (single isomer, unassigned) [Compound 1 Diastereomer 1] | 330 pmol/g at 1 μmol/kg |

— patent US9109001B2, “3′,5′-cyclic phosphoramidate prodrugs for HCV infection” (priority 2012, dated 2015)
